The list does not hold the whole screen: it gathers tests that were run many times, whatever their T/C, doses with no T/C, and many T/C values between a quarter and a half above the control. Further doses and runs are listed elsewhere. T/C gives the treated animals as a percentage of the vehicle group. Some entries give survivors of the animals treated and no T/C: the source files T/C as zero there, which appears to mark a toxic dose or a test without result, not a measured value. Some doses without a T/C left all or most animals alive at the check, yet need not have been tolerated: the source hardly ever lists a survival T/C far under the control, and the zero likely stands for such cases as well. Counts of survivors are from the toxicity check (mostly the fifth day) where no day follows; animals may have died later. Schedule codes are those of the source, taken here to give the interval after Q, in days (D) or hours (H), and the number of doses after X. For survival time, the PubChem record calls one and a half times the control and up active, and a quarter to a half above the control has no call in these data; cut-offs in other NCI protocols can differ. Some entries hold several experiments; the results are listed from low to high. Some T/C values are followed by the survivors on the day toxicity was checked, most often the fifth; without a count, all were alive then.
System: BDF1 mice, P388 leukemia ip, median survival T/C
Assay: NCI In Vivo Anticancer Drug Screen. Data for tumor model P388 Leukemia (intraperitoneal) in B6D2F1 (BDF1) mice
Conditions: T/C endpoint: median survival time, higher T/C = longer survival
In short: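 Steps: implant the tumour, treat one group with compound and another with vehicle, record survival, then divide treated by control.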

[1] = dose: 200.0 mg/kg/injection, schedule: Q01DX009 (ip), vehicle: saline with Tween-80
[2] = dose: 400.0 mg/kg/injection, schedule: Q01DX009 (ip), vehicle: saline with Tween-80
[3] = dose: 400.0 mg/kg/injection, schedule: Q04DX003 (ip), vehicle: saline

CCC12C=CCN3CCC4(c5c(C(c6ccc(OC)cc6)c6c(CN(C)C)c7ccccc7n6C)cc(OC)cc5N(C)C4C(O)(C(=O)OC)C1OC(C)=O)C32 (centres undefined)
T/C (dose: 30.0 mg/kg/injection, schedule: Q01DX009 (ip), vehicle: saline): 129 % of control

COc1cc([C@@H]2c3cc4c(c(O)c3C[C@H]3COC(=O)[C@@H]32)OCO4)cc(OC)c1O
T/C (dose: 0.5 mg/kg/injection, schedule: Q01DX010 (ip), vehicle: carboxymethylcellulose (CMC)): 125 % of control
T/C (dose: 1.0 mg/kg/injection, schedule: Q01DX001 (ip), vehicle: other): 126 % of control
survivor count (dose: 1.0 mg/kg/injection, schedule: Q01DX010 (ip), vehicle: other): 6 of 6
T/C (dose: 2.0 mg/kg/injection, schedule: Q01DX001 (ip), vehicle: other): 126 % of control
survivor count (dose: 2.0 mg/kg/injection, schedule: Q01DX010 (ip), vehicle: carboxymethylcellulose (CMC)): 4 of 6
survivor count (dose: 2.0 mg/kg/injection, schedule: Q01DX010 (ip), vehicle: other): 4 of 6
T/C (dose: 4.0 mg/kg/injection, schedule: Q01DX001 (ip), vehicle: other): 126 % of control [4 of 6 alive]
survivor count (dose: 4.0 mg/kg/injection, schedule: Q01DX010 (ip), vehicle: carboxymethylcellulose (CMC)): 1 of 6
survivor count (dose: 4.0 mg/kg/injection, schedule: Q01DX010 (ip), vehicle: other): 3 of 6
T/C (dose: 125.0 micrograms/kg/injection, schedule: Q01DX010 (ip), vehicle: other): 135 % of control
T/C (dose: 250.0 micrograms/kg/injection, schedule: Q01DX010 (ip), vehicle: other): 140 % of control

CCCn1cnc2c(=S)nc(N)[nH]c21
survivor count (dose: 100.0 mg/kg/injection, schedule: Q01DX009 (ip), vehicle: Klucel (hydroxypropylcellulose) (HPC)): 6 of 6
T/C (dose: 100.0 mg/kg/injection, schedule: Q04DX003 (ip), vehicle: Klucel (hydroxypropylcellulose) (HPC)): 131 % of control
survivor count (dose: 150.0 mg/kg/injection, schedule: Q04DX003 (ip), vehicle: Klucel (hydroxypropylcellulose) (HPC)): 6 of 6
survivor count (dose: 200.0 mg/kg/injection, schedule: Q01DX009 (ip), vehicle: Klucel (hydroxypropylcellulose) (HPC)): 6 of 6
survivor count (dose: 400.0 mg/kg/injection, schedule: Q04DX003 (ip), vehicle: Klucel (hydroxypropylcellulose) (HPC)): 6 of 6

COc1ccccc1NC(=O)N(CCCl)N=O
survivor count (dose: 100.0 mg/kg/injection, schedule: Q04DX003 (ip), vehicle: saline with Tween-80): 2 of 6
survivor count (dose: 200.0 mg/kg/injection, schedule: Q04DX003 (ip), vehicle: saline with Tween-80): 0 of 6
survivor count (dose: 400.0 mg/kg/injection, schedule: Q04DX003 (ip), vehicle: saline with Tween-80): 0 of 6

Nc1ncnc2c1ccn2C1OC2COP(=O)(O)OC2C1O (centres undefined)
T/C (dose: 2.5 mg/kg/injection, schedule: Q01DX010 (ip), vehicle: saline): 145 % of control
T/C (dose: 5.0 mg/kg/injection, schedule: Q01DX010 (ip), vehicle: saline): 145 % of control
survivor count (dose: 10.0 mg/kg/injection, schedule: Q01DX010 (ip), vehicle: saline): 6 of 6
survivor count (dose: 20.0 mg/kg/injection, schedule: Q01DX010 (ip), vehicle: saline): 6 of 6
survivor count (dose: 40.0 mg/kg/injection, schedule: Q01DX010 (ip), vehicle: saline): 2 of 6

O=C(O)C1(NO)CCCC1
survivor count (dose: 400.0 mg/kg/injection, schedule: Q01DX009 (ip), vehicle: saline): 0 of 6

O=C(Oc1ccc(-c2ccc(Br)cc2)cc1)c1ccco1
survivor count [1]: 6 of 6
survivor count [2]: 4 of 6

CCCCCC(C(C)=O)(C1=NC(C)(C)CC(C)O1)c1ccccc1 (centres undefined)
survivor count [3]: 0 of 6

COc1cc2cc[n+]3c(C)c4ccc(OC)c(OC)c4cc3c2cc1OC (tested in a mixture with another compound)
T/C (dose: 5.0 mg/kg/injection, schedule: Q01DX009 (ip), vehicle: saline): 137 % of control
survivor count (dose: 60.0 mg/kg/injection, schedule: Q01DX009 (ip), vehicle: saline): 4 of 6
survivor count (dose: 80.0 mg/kg/injection, schedule: Q01DX009 (ip), vehicle: saline): 6 of 6
survivor count (dose: 168.0 mg/kg/injection, schedule: Q01DX009 (ip), vehicle: saline): 0 of 6

NC(N)=Nc1ccc(OC(=O)c2ccc(N=C(N)N)cc2)cc1
survivor count (dose: 50.0 mg/kg/injection, schedule: Q01DX009 (ip), vehicle: water): 4 of 6
survivor count (dose: 100.0 mg/kg/injection, schedule: Q01DX009 (ip), vehicle: water): 3 of 6

Cc1cc(C)c2cc3cccc[n+]3cc2c1
survivor count (dose: 8.0 mg/kg/injection, schedule: Q01DX010 (ip), vehicle: carboxymethylcellulose (CMC)): 2 of 6
survivor count (dose: 16.0 mg/kg/injection, schedule: Q01DX010 (ip), vehicle: carboxymethylcellulose (CMC)): 1 of 6
survivor count (dose: 32.0 mg/kg/injection, schedule: Q01DX010 (ip), vehicle: carboxymethylcellulose (CMC)): 0 of 6

[N-]=[N+]=CC(=O)CCC(N)C(=O)O (centres undefined)
T/C (dose: 0.03 mg/kg/injection, schedule: Q01DX010 (ip), vehicle: saline): 125 % of control
T/C (dose: 0.05 mg/kg/injection, schedule: Q01DX010 (ip), vehicle: saline): 131 and 140 % of control
T/C (dose: 0.1 mg/kg/injection, schedule: Q01DX010 (ip), vehicle: saline): 140 % of control
T/C (dose: 0.4 mg/kg/injection, schedule: Q01DX010 (ip), vehicle: water): 125 % of control

COc1cc(C=Nc2ccc(Cl)cc2)ccc1N(CCCl)CCCl
T/C (dose: 50.0 mg/kg/injection, schedule: Q04DX003 (ip), vehicle: saline): 145 % of control
survivor count (dose: 75.0 mg/kg/injection, schedule: Q04DX003 (ip), vehicle: other): 6 of 6
survivor count (dose: 100.0 mg/kg/injection, schedule: Q01DX009 (ip), vehicle: saline with Tween-80): 3 of 6
survivor count [1]: 0 of 6
survivor count [2]: 0 of 6

[CH3][Sn]([CH3])([CH3])[S]C(=S)N1CCOCC1
survivor count (dose: 1.5 mg/kg/injection, schedule: Q01DX009 (ip), vehicle: Klucel (hydroxypropylcellulose) (HPC)): 6 of 6
survivor count (dose: 3.0 mg/kg/injection, schedule: Q01DX009 (ip), vehicle: Klucel (hydroxypropylcellulose) (HPC)): 1 of 6

COc1cc2c3c(c1)-c1c(ccc(OC)c1Oc1nnnn1-c1ccccc1)CC3N(C)CC2 (centres undefined)
survivor count [3]: 0 of 6

O=C1c2ccccc2C(=O)C(Cl)C1Cl (centres undefined)
survivor count (dose: 12.5 mg/kg/injection, schedule: Q01DX009 (ip), vehicle: saline with Tween-80): 0 of 6

O=C(Nc1cccc(O)c1)C(Cl)=C(Cl)Cl
survivor count (dose: 50.0 mg/kg/injection, schedule: Q01DX005 (ip), vehicle: saline with Tween-80): 3 of 5
survivor count (dose: 100.0 mg/kg/injection, schedule: Q01DX005 (ip), vehicle: saline with Tween-80): 1 of 5
survivor count (dose: 200.0 mg/kg/injection, schedule: Q01DX005 (ip), vehicle: saline with Tween-80): 1 of 5

Clc1ccc(C2c3ccccc3C[n+]3ccccc32)cc1 (centres undefined)
survivor count (dose: 35.0 mg/kg/injection, schedule: Q01DX009 (ip), vehicle: Klucel (hydroxypropylcellulose) (HPC)): 0 of 6
survivor count (dose: 50.0 mg/kg/injection, schedule: Q04DX003 (ip), vehicle: Klucel (hydroxypropylcellulose) (HPC)): 6 of 6

COc1ccc2c3c1OC1CC(O)C=CC31CCN(C)C2 (centres undefined)
survivor count (dose: 10.0 mg/kg/injection, schedule: Q01DX010 (ip), vehicle: carboxymethylcellulose (CMC)): 2 of 6
survivor count (dose: 20.0 mg/kg/injection, schedule: Q01DX010 (ip), vehicle: carboxymethylcellulose (CMC)): 0 of 6

Cc1c(N)cccc1N
survivor count (dose: 50.0 mg/kg/injection, schedule: Q01DX009 (ip), vehicle: saline with Tween-80): 0 of 6

CCCCCCCCCCCCSC(=N)N
survivor count (dose: 1.56 mg/kg/injection, schedule: Q04DX003 (ip), vehicle: saline): 0 of 6
survivor count (dose: 6.25 mg/kg/injection, schedule: Q04DX003 (ip), vehicle: saline): 6 of 6
survivor count (dose: 12.5 mg/kg/injection, schedule: Q04DX003 (ip), vehicle: saline): 6 of 6

COc1cccc2c1C(=O)c1c(O)c3c(c(O)c1C2=O)C[C@@](O)(C(O)O)C[C@@H]3OC1CC(N)C(O)C(C)O1 (some centres undefined)
survivor count (dose: 32.0 mg/kg/injection, schedule: Q01DX009 (ip), vehicle: water): 3 of 3
survivor count (dose: 64.0 mg/kg/injection, schedule: Q01DX009 (ip), vehicle: water): 0 of 3

— PubChem BioAssay AID328 (DTP/NCI, 2004)
